# PubChem BioAssay AID493014 (National Center for Advancing Translational Sciences (NCATS), 2011)
# Hit rate of the full screen: of about 340,000 compounds, about 170 (0.05%) were called active. The shares of active, inactive and inconclusive entries below differ from those in the screen. Calls follow the shape of the dose curve; as a rule, active = well fitted inhibition curve with a large enough effect in the signal ratio, with a control signal flat (not every such curve was filed as active); inconclusive = small, poorly fitted or top-dose-only effect, or effect the other way, or a change in a side signal; inactive = flat fitted curve, though single readings scatter; the % refers to the signal ratio. Where the call is inconclusive, the potency comes from a doubtful curve fit.
# Assay: qHTS Assay to Find Inhibitors of Chronic Active B-Cell Receptor Signaling;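 as to activity change, negative = inhibition: plate controls were basal doxycycline-induced cells for no effect and cells given 10 µM MG132 for full effect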
# Conditions: ABC-DLBCL IkBa-CBG/CBR reporter, luminescence ratio (green luciferase fused to IkBa over red control in TMD8 lymphoma cells), 4 h; activity change, negative = inhibition: at 46.1 µM (top of the series)
# Summary of the method: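 Doxycycline induced both beetle luciferases in TMD8 lymphoma cells; IKK-driven degradation limits the IkappaBalpha-fused green signal, while red luminescence normalises for cell number and nonspecific effects. Compounds tested up to 46 uM, 4 hrs.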
# Potency is read from the fitted curve at half-maximal effect.
SMILES,"activity change, negative = inhibition",Potency
Cc1cc(-c2nnc(SCC(=O)Nc3cccc(F)c3)n2N)n[nH]1,inactive,–
CCC(OC(=O)c1cccs1)C(=O)NCc1ccc2c(c1)OCO2 (stereo not drawn),inconclusive: 19.1%,–
CN(Cc1ccccc1)C(=O)N1CCOCC1,inactive,–
C=C(C)C1CC=C(C)/C(=N/Nc2ccccc2[N+](=O)[O-])C1 (stereo not drawn),inconclusive: 15.3%,–
COC(=O)c1cc(Sc2c(Cl)cccc2Cl)ccn1,inactive,–
CC1=C/C(=N\OS(=O)(=O)c2ccccc2)C(C(C)C)=CC1=O,inconclusive: 14.2%,–
CC(C)(C)c1nnc2sc(SC/C(O)=C(\C#N)c3nc4ccccc4[nH]3)nn2c1=O,inconclusive: 8.72%,–
CC(C)c1nnc(NC(=O)C2CCCN2C(=O)Nc2ccccc2F)s1 (stereo not drawn),–,"inconclusive: 35.5 µM [falling, single point]"
C=CCOc1ccc(C(=O)/C=C2/C(=O)Nc3ccccc32)cc1,–,"inconclusive: 35.5 µM [falling, single point]"
O=C(Nn1c(O)c(C=C2N=c3ccccc3=N2)sc1=S)c1ccccc1,–,"inconclusive: 0.651 µM [falling, partial curve, poor fit]"
Cc1ccc(C(=O)Nc2ccc(N3CCOCC3)nc2N2CCOCC2)cc1,inactive,–
COc1ccc(-n2cc(C#N)c(=O)n(Cc3ccc(F)cc3)c2=O)cc1,inconclusive: 2.91%,–
COc1ccc(COC(=O)NNC(=O)c2ccccc2Cl)cc1,inconclusive: 4.57%,–
CN(C)S(=O)(=O)c1ccc(N2CCCC2)c(C(=O)NNC(=O)c2ccccc2)c1,inactive,–
CN(C)S(=O)(=O)c1ccc(C(=O)NCc2cccs2)cc1,inconclusive: 10.7%,–
Cn1nnc2cc(C(=O)NCc3ccc4c(c3)OCO4)ccc21,–,"inconclusive: 4.11 µM [falling, full curve, poor fit]"
CN(C)S(=O)(=O)N1CCN(S(=O)(=O)N(C)C)CC1,–,"inconclusive: 0.461 µM [falling, full curve, poor fit]"
Nc1ccc(N=Nc2ccccc2)c(N)n1,inconclusive: 10.1%,–
O=C(Nc1ccc(S(=O)(=O)N2CCOCC2)cc1)c1ccc([N+](=O)[O-])o1,inactive,–
Cc1cccc2sc(N(CCCN(C)C)C(=O)CCS(=O)(=O)c3ccccc3)nc12,inconclusive: 8.4%,–
CC(=O)N1CCN(c2ccc(S(=O)(=O)N3CCOCC3)cc2[N+](=O)[O-])CC1,inactive,–
Cc1ccccc1OCCCn1c(=O)sc2ccccc21,inconclusive: 13.6%,–
O=C(c1cc(COc2ccc(F)cc2Cl)on1)N1CC[C@@H]2CCCC[C@H]2C1,inconclusive: 5.61%,–
CCc1ccc(Nc2nnc(SCC(=O)Nc3cccc(S(=O)(=O)NC4=NCCCCC4)c3)s2)cc1,–,"inconclusive: 23.1 µM [falling, single point]"
CC(C)(CCl)C(=O)Nc1ccc(C(F)(F)F)cc1,inconclusive: 9.33%,–
COc1ccc2cc(-c3nnc(Nc4ccccc4)s3)c(=O)oc2c1,–,"inconclusive: 14.1 µM [falling, partial curve]"
CC(C)C(=O)N1CCN(c2ccc(NC(=O)c3ccc([N+](=O)[O-])o3)cc2)CC1,–,"inconclusive: 22.4 µM [falling, single point]"

# Among those listed so far, two have a furan ring, fused or not.
SMILES,"activity change, negative = inhibition",Potency
O=C(Nc1ccc(S(=O)(=O)N2CCOCC2)cc1)c1ccc([N+](=O)[O-])o1,inactive,–
CC(C)C(=O)N1CCN(c2ccc(NC(=O)c3ccc([N+](=O)[O-])o3)cc2)CC1,–,"inconclusive: 22.4 µM [falling, single point]"

# Next structures:

SMILES,"activity change, negative = inhibition",Potency
c1ccc2c(CCNc3ncnc4nc[nH]c34)cccc2c1,–,"inconclusive: 20.6 µM [falling, single point]"
CC(=O)c1cc(-c2ccc(F)cc2)n(CC(=O)NC2CCC(C)CC2)c1C (stereo not drawn),inactive,–
COc1cccc(CNC(=O)c2ccc3c(=O)n4nc(Nc5ccccc5)sc4nc3c2)c1,–,"inconclusive: 3.16 µM [falling, full curve]"
CCn1c(N)c(C(N)=O)sc1=S,–,"inconclusive: 0.651 µM [falling, partial curve, poor fit]"
Cc1cc(NC(=O)c2sc(Nc3ccc(F)c(Cl)c3)nc2N)no1,inconclusive: 4.35%,–
Cc1ccc(-n2nnnc2-c2cnn(-c3ccc(F)cc3)c2C(F)(F)F)cc1,inactive,–
C(=C\c1ccccc1)/CSc1nnc(-c2ccncc2)n1Cc1ccco1,inactive,–
Cc1cccnc1NC(=O)c1ccc(S(=O)(=O)N2CCC(C)CC2)cc1,inconclusive: 1.17%,–
C[C@@H](NC(=O)[C@@H]1Cc2ccccc2CN1C(=O)OC(C)(C)C)C(=O)NC1CCCC1,inactive,–
CCCCCOC(=O)Nc1nnc(CCCCC)s1,inconclusive: 12.4%,–
CC(NC(=S)Nc1ccc(OC(F)F)cc1OC(F)F)C(C)(C)C (stereo not drawn),inactive,–
CCC(C)c1ccccc1NC(=O)CN(C)CCOc1ccc(Cl)cc1 (stereo not drawn),inactive,–
COc1ccc(OCc2cc(C(=O)O)c(C)o2)cc1,–,"inconclusive: 22.4 µM [falling, partial curve]"
C/C=C/C(=O)N[C@@H]1c2ccccc2CC[C@@H]1OCc1ccccc1,inactive,–
CCCCc1c(C)nc2ccc(Br)cc2c1SC(N)N,inconclusive: 11.5%,–
Cc1c(NC(=O)C(C)OC(=O)c2c3c(nc4ccccc24)CCC3)c(=O)n(-c2ccccc2)n1C (stereo not drawn),inactive,–
CC(C)CN(C(=O)COC(=O)c1ccc([N+](=O)[O-])s1)c1c(N)n(Cc2ccccc2)c(=O)[nH]c1=O,inactive,–
CCOC(=O)c1cnc(-c2ccccc2)nc1Oc1ccc(C)cc1,inconclusive: 10.4%,–
COc1ccc(C(NC(=O)c2cccc(F)c2)c2ccccc2)cc1 (stereo not drawn),inactive,–
Cc1ccc(NC(=O)C(c2ccccc2)C2CCCC2)cc1 (stereo not drawn),inactive,–
CCC(=O)Nc1nnc(-c2ccncc2)s1,–,"inconclusive: 11.6 µM [falling, partial curve, poor fit]"
CCC(CO)Oc1cc(NCc2cc(C)cc(C)c2)c2ncn(C(C)C)c2c1 (stereo not drawn),inconclusive: -5.2%,–
CC(C)CN1C(=O)C(=O)N(CC(=O)NC2CCCc3ccccc32)C1=O (stereo not drawn),inactive,–
O=C(Cn1c(=O)cnc2ccccc21)NNC(=O)c1ccc(Cl)cc1,inconclusive: 9.24%,–
O=C(Nc1ccccc1)c1ccc(OC(=O)c2cc3ccccc3o2)cc1,–,"inconclusive: 1.03 µM [falling, partial curve, poor fit]"
O=C(O)c1ccccc1C(=O)NC1CCCCNC1=O (stereo not drawn),–,"inconclusive: 7.08 µM [falling, partial curve]"
